The other results are listed elsewhere or left out. For some of these results: Construct or isoform of the protein are uncertain.

Common to all, as to experiment: protein microarray (ProtoArray v5.0), streptavidin-Alexa Fluor 647
Common to all, as to details: 3'-biotin; 20 mM Tris (pH 7.5), 5 mM MgCl2, 100 mM KCl, 0.1% Tween-20, A/T-rich and random oligonucleotide blockers; temperature not stated; high values mean tight binding

The subject of assay [1] is SSPN (human).
In assay [2] the target is T1, STAP1 (UniProt Q9ULZ2).
T1 sequence: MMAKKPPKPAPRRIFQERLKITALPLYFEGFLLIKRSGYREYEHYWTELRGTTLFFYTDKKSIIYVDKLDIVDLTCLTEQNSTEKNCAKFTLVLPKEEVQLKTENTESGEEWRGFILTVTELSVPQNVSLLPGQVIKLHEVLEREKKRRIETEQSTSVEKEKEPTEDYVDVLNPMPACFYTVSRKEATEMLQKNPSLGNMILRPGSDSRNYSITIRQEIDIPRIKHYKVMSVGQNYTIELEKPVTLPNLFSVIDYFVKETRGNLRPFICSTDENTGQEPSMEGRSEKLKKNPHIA

Assay [3] has as its system STARD7 (human).
Assay [4] relates to STCH (human).
The test system of assay [5] is STEAP4 (human).
For assay [6], the system named is STK16 (human).
Assay [7] deals with STK40 (human).
Assay [8] concerns STOML2 (human).
Assay [9] relates to STRA13 (human).
Assay [10] has as its system STX18 (human).

Consider “GGGGACAGGGGTATGGGGAGGGG [G4-3 biotinylated (CtG)]”, for which the binding signal in [1] is -0.321 z-score; in assay [2], 6.03 z-score; in assay [3], -0.339 z-score; in [4] it was -0.327 z-score; in [5], -0.318 z-score; in assay [6], -0.322 z-score. Also, the binding signal in [7] is -0.32 z-score; in assay [8], -0.313 z-score; in assay [9], -0.309 z-score; in assay [10] it was -0.327 z-score.

These data come from paper PMC5996148.
